Laboratory results taken from article PMC12375108.

What was measured:
AMPylated sodA [1] = biological target: T1, AMPylated sodA (UniProt P00448); test: far-Western, overlay or dot blot; dot blot: 400 ng to 25 ng of AMPylated or non-AMPylated protein spotted on nitrocellulose, probed with GST or GST-hinT at 0.125 μg/mL in TBST for 1 h, detected with α-GST; both purified
T1 sequence (chain, AMPylated on tyrosine, residue not printed): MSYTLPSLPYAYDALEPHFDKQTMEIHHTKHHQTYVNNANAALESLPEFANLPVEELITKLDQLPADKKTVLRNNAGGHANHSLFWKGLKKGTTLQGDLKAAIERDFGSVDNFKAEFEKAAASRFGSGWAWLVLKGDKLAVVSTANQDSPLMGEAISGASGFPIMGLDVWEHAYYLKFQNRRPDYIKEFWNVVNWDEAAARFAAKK

non-AMPylated sodA = biological target: T2, non-AMPylated sodA (UniProt P00448); test: as above
T2 sequence: T1 sequence (chain, AMPylated on tyrosine, residue not printed)

AMPylated sodA [2] = biological target: T1, AMPylated sodA; test: far-Western, overlay or dot blot; far western: 0.5 μg/lane of AMPylated and non-AMPylated SodA, Rab1, Rac1 and BiP resolved by SDS-PAGE, membrane probed with 0.06 μg/ml GST-hinT homologs for 1 h at room temperature, detected with α-GST; both purified
AMPylated sodA [3] = biological target: T1, AMPylated sodA; test: far-Western, overlay or dot blot; auto-ADP-ribosylated PARP1 (no, 3 μM or 250 μM NAD+) and sodA-AMP on membrane probed with Tm hinT H100N (Supplementary Fig. 12a); whether dot blot or far western is not given; both purified

With “GST-tagged T. marianensis hinT H100N (Thermaerobacter marianensis) (enzyme)” the binding (AMPylated sodA [1]) was “binds”, the binding (non-AMPylated sodA) was “no binding (tested: 0.125 μg/mL; up to 400 ng spotted)” and the binding (AMPylated sodA [2]) was “binds”. For the same substance, the binding (AMPylated sodA [3]) was “binds”.

These are yes or no findings as the source states them, for the method shown. For some of these results: Binding calls can cover weak binding; strength is not graded here.
